Test [1] deals with T1, Mitofusin-2 (human (endogenous in HLMVECs)) (UniProt O95140).
T1 sequence: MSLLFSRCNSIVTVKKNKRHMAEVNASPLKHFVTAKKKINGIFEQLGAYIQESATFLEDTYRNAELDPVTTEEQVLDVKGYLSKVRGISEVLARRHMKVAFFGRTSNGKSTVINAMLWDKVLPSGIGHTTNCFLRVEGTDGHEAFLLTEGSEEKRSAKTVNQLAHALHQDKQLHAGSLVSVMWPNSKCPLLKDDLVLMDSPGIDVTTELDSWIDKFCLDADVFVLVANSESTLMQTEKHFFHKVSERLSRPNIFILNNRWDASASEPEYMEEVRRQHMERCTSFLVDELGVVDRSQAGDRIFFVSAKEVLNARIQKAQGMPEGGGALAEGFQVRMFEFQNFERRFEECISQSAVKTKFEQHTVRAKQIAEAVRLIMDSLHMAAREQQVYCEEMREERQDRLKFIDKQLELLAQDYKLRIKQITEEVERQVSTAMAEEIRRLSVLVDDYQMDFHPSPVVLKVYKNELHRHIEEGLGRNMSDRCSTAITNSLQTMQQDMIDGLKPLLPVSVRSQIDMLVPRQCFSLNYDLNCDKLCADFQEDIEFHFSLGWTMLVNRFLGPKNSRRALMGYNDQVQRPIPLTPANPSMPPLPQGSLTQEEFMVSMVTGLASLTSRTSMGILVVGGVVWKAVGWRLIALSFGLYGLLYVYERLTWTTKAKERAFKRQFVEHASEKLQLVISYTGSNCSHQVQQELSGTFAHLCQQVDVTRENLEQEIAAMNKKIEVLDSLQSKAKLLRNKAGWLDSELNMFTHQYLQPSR
In words: co-IP; lysate of confluent HLMVECs (50 mM HEPES pH 7.5, 120 mM NaCl, 5 mM EDTA, 1% Triton X-100); immunoprecipitation with 1 µg Mfn2 antibody, Western blot for VE-cadherin or β-catenin; resting cells, also cells treated with TNFα (10 ng/mL, 6 h), H2O2 (500 µM, 30 min), NAC pretreatment (20 mM, 30 min) or Mfn2 shRNA. Background: Immunoblotting shows a protein as a band on a membrane.

The target of test [2] is T2, vascular endothelial (VE)-cadherin (human (endogenous in HLMVECs)), P33151.
T2 chain: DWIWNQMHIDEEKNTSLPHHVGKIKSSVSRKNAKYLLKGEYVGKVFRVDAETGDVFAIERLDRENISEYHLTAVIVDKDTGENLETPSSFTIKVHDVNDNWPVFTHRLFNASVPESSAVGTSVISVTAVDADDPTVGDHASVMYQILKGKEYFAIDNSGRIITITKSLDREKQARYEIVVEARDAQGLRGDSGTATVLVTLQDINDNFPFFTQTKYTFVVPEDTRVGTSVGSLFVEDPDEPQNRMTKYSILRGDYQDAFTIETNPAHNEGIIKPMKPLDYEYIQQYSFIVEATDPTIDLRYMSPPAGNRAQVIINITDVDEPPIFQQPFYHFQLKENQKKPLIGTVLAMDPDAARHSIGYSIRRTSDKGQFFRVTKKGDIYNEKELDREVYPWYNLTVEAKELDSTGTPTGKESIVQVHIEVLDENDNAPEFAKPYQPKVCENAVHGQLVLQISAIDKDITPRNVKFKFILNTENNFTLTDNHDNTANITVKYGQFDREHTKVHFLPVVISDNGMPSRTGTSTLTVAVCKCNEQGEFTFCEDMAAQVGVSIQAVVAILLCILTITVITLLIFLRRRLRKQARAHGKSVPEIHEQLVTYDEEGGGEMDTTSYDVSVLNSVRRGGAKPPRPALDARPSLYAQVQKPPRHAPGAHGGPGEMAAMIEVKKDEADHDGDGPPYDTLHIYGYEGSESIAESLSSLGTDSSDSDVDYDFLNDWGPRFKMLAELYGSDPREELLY
Nature of the test: proximity ligation; in situ PLA (Duolink) on confluent HLMVECs with or without TNFα (10 ng/mL) for 6 h; mouse VE-cadherin or mouse Mfn2 antibody with rabbit β-catenin antibody. The conditions noted are these: remark: other sources report otherwise.

No constants are given. Whether binding was seen depends on the method and setting. In cells and extracts the contact can be indirect. Some results given as binding are weak or reduced against the parent protein; the word gives no strength. For some assays here: Sequences can lack the tags named with a protein.

B1: vascular endothelial (VE)-cadherin (protein, UniProt P33151 48-784)
chain: DWIWNQMHIDEEKNTSLPHHVGKIKSSVSRKNAKYLLKGEYVGKVFRVDAETGDVFAIERLDRENISEYHLTAVIVDKDTGENLETPSSFTIKVHDVNDNWPVFTHRLFNASVPESSAVGTSVISVTAVDADDPTVGDHASVMYQILKGKEYFAIDNSGRIITITKSLDREKQARYEIVVEARDAQGLRGDSGTATVLVTLQDINDNFPFFTQTKYTFVVPEDTRVGTSVGSLFVEDPDEPQNRMTKYSILRGDYQDAFTIETNPAHNEGIIKPMKPLDYEYIQQYSFIVEATDPTIDLRYMSPPAGNRAQVIINITDVDEPPIFQQPFYHFQLKENQKKPLIGTVLAMDPDAARHSIGYSIRRTSDKGQFFRVTKKGDIYNEKELDREVYPWYNLTVEAKELDSTGTPTGKESIVQVHIEVLDENDNAPEFAKPYQPKVCENAVHGQLVLQISAIDKDITPRNVKFKFILNTENNFTLTDNHDNTANITVKYGQFDREHTKVHFLPVVISDNGMPSRTGTSTLTVAVCKCNEQGEFTFCEDMAAQVGVSIQAVVAILLCILTITVITLLIFLRRRLRKQARAHGKSVPEIHEQLVTYDEEGGGEMDTTSYDVSVLNSVRRGGAKPPRPALDARPSLYAQVQKPPRHAPGAHGGPGEMAAMIEVKKDEADHDGDGPPYDTLHIYGYEGSESIAESLSSLGTDSSDSDVDYDFLNDWGPRFKMLAELYGSDPREELLY
Consider B1, for which the binding result in test [1] is recorded as “binds”.

B2: β-catenin (natural protein, human (endogenous in HLMVECs), UniProt P35222 1-781, looked up)
chain: MATQADLMELDMAMEPDRKAAVSHWQQQSYLDSGIHSGATTTAPSLSGKGNPEEEDVDTSQVLYEWEQGFSQSFTQEQVADIDGQYAMTRAQRVRAAMFPETLDEGMQIPSTQFDAAHPTNVQRLAEPSQMLKHAVVNLINYQDDAELATRAIPELTKLLNDEDQVVVNKAAVMVHQLSKKEASRHAIMRSPQMVSAIVRTMQNTNDVETARCTAGTLHNLSHHREGLLAIFKSGGIPALVKMLGSPVDSVLFYAITTLHNLLLHQEGAKMAVRLAGGLQKMVALLNKTNVKFLAITTDCLQILAYGNQESKLIILASGGPQALVNIMRTYTYEKLLWTTSRVLKVLSVCSSNKPAIVEAGGMQALGLHLTDPSQRLVQNCLWTLRNLSDAATKQEGMEGLLGTLVQLLGSDDINVVTCAAGILSNLTCNNYKNKMMVCQVGGIEALVRTVLRAGDREDITEPAICALRHLTSRHQEAEMAQNAVRLHYGLPVVVKLLHPPSHWPLIKATVGLIRNLALCPANHAPLREQGAIPRLVQLLVRAHQDTQRRTSMGGTQQQFVEGVRMEEIVEGCTGALHILARDVHNRIVIRGLNTIPLFVQLLYSPIENIQRVAAGVLCELAQDKEAAEAIEAEGATAPLTELLHSRNEGVATYAAAVLFRMSEDKPQDYKKRLSVELTSSLFRTEPMAWNETADLGLDIGAQGEPLGYRQDDPSYRSFHSGGYGQDALGMDPMMEHEMGGHHPGADYPVDGLPDLGHAQDLMDGLPPGDSNQLAWFDTDL
notes: β-catenin, endogenous in human lung microvascular endothelial cells; also called beta-catenin; source: endogenous, HLMVEC lysate or fixed HLMVECs
On to B2, for which the binding entry in test [2] is “binds”.
